From patent US20240382610A1
Results are given in words; binding and its absence hold for the method and conditions named. Some results given as binding are weak or reduced against the parent protein; the word gives no strength.

Amino acid sequences for entries named in this document (tags omitted). Residues count along the entry.
UniProt Q96NY8, residues 32-510: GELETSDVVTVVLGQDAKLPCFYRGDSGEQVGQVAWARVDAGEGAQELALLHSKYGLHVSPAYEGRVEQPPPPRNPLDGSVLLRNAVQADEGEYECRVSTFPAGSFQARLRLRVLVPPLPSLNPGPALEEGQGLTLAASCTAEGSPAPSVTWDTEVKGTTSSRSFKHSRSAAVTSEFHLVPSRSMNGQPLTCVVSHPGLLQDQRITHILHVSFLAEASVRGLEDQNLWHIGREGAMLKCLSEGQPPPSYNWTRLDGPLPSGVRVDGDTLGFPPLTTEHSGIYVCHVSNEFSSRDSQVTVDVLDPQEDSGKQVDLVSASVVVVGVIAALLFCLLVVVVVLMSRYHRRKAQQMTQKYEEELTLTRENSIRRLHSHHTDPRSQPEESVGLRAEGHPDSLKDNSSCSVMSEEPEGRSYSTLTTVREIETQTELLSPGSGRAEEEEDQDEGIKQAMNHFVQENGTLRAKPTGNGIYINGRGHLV

How the values were obtained:
[1] = biological target: human nectin-4 on cells (human) (UniProt Q96NY8); assay: flow cytometry, AF647-labelled antibody on SKBR3 cells (endogenous nectin-4)
[2] = biological target: Human nectin-4-IgV-6His (TNT-252) (human) (UniProt Q96NY8); assay: SPR Biacore 8K

B1: TNT-336 (antibody, V domains shown)
VH: KVQLVESGGGLVQPGGSLRLSCEASGFTFSNYWMHWVRQVPGEGLVWVSRLNNGGTSTRYADSVKSRFTISRDNAKNTLYLQMNSLRAEDTAVYYCVRDWYFDLWGRGTLVTVSS
VL: QLVLTQSPSASASLGASVKLTCTLSSGHSFYAIAWHQQQPEKGPRYLMQVNSNGSHNKGDGIPDRFSGSSSGAERYLTISSLQSEDEADYYCQSWDTDIWVFGGGTKLTVLG
- binding [1]: binds
- binding [2]: binds
